Experimental data taken from PMC8486662.
No constants are given. Whether binding was seen depends on the method and setting. Binding seen in cells or lysates may run through a third protein. Some entries that bind do so weakly or less than the wild type. For some of these results: Where a sequence is shown, tags or fusion partners need not be part of it.

By UniProt entry, the sequences of proteins in these tests, tags left out.
UniProt P35222: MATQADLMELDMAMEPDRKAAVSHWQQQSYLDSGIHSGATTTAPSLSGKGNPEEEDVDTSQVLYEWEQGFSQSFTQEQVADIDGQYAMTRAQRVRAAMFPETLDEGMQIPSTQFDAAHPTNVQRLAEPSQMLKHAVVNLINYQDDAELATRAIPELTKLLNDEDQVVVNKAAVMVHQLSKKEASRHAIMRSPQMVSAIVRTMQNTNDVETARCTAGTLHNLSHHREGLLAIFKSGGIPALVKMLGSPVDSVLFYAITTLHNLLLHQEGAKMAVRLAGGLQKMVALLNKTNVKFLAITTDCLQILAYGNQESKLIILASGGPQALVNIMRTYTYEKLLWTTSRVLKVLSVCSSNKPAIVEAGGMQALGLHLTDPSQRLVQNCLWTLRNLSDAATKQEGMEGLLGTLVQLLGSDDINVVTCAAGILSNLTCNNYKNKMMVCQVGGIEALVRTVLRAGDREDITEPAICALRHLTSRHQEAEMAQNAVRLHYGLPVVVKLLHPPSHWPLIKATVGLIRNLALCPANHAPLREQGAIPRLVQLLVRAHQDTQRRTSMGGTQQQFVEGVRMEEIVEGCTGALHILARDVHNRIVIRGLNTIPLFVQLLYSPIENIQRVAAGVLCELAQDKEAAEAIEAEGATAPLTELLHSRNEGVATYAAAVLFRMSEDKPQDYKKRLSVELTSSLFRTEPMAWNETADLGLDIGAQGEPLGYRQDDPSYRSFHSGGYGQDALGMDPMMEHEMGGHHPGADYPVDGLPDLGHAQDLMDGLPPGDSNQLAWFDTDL

T1: zebrafish E-cadherin (zebrafish (endogenous in zebrafish embryos)) (UniProt Q90Z37)
T1 sequence: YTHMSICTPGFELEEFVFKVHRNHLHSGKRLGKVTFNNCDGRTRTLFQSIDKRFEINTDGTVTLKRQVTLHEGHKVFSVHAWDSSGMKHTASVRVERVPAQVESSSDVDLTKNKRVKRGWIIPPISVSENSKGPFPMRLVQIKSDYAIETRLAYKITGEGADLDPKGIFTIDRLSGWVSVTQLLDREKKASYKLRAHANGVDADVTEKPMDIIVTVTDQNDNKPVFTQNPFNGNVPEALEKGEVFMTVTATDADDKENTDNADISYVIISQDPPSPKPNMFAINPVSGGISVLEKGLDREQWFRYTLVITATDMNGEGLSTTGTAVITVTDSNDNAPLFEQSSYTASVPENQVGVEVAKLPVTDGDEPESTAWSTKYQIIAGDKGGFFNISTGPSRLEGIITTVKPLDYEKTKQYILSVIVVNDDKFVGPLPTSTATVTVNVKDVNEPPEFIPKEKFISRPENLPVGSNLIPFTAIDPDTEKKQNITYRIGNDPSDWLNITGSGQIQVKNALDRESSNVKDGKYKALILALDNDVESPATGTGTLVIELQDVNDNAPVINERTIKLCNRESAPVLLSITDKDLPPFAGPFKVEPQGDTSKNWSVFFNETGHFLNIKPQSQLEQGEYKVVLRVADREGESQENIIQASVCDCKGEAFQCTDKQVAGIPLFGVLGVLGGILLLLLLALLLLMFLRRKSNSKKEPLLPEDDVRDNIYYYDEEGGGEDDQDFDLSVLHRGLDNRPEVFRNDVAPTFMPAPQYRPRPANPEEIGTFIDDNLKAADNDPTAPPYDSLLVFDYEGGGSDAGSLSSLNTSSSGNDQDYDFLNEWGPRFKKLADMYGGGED


Tests used:
[1] = target: β-catenin (human (endogenous in TPC1)) (UniProt P35222); assay: co-IP; WT, mutated (p.H150Y, p.L187P) or truncated (p.E336fs) hGBP1 with β-catenin, TPC1 cells; which partner was precipitated is not told
[2] = target: T1, zebrafish E-cadherin (zebrafish (endogenous in zebrafish embryos)); assay: proximity ligation; Duolink PLA in the thyroid primordium of 4-dpf Tg(tg:GFP) zebrafish embryos, WT and gbp1 morphants

binding [1] | binding [2] | Binder
binds |  | wild-type human GBP1 with Flag fused in the N-terminal (protein, UniProt P32455 1-592) MASEIHMTGPMCLIENTNGRLMANPEALKILSAITQPMVVVAIVGLYRTGKSYLMNKLAGKKKGFSLGSTVQSHTKGIWMWCVPHPKKPGHILVLLDTEGLGDVEKGDNQNDSWIFALAVLLSSTFVYNSIGTINQQAMDQLYYVTELTHRIRSKSSPDENENEVEDSADFVSFFPDFVWTLRDFSLDLEADGQPLTPDEYLTYSLKLKKGTSQKDETFNLPRLCIRKFFPKKKCFVFDRPVHRRKLAQLEKLQDEELDPEFVQQVADFCSYIFSNSKTKTLSGGIQVNGPRLESLVLTYVNAISSGDLPCMENAVLALAQIENSAAVQKAIAHYEQQMGQKVQLPTETLQELLDLHRDSEREAIEVFIRSSFKDVDHLFQKELAAQLEKKRDDFCKQNQEASSDRCSALLQVIFSPLEEEVKAGIYSKPGGYRLFVQKLQDLKKKYYEEPRKGIQAEEILQTYLKSKESMTDAILQTDQTLTEKEKEIEVERVKAESAQASAKMLQEMQRKNEQMMEQKERSYQEHLKQLTEKMENDRVQLLKEQERTLALKLQEQEQLLKEGFQKESRIMKNEIQDLQTKMRRRKACTIS
binds |  | human GBP1 p.L187P with Flag fused in the N-terminal (protein, UniProt P32455 1-592) MASEIHMTGPMCLIENTNGRLMANPEALKILSAITQPMVVVAIVGLYRTGKSYLMNKLAGKKKGFSLGSTVQSHTKGIWMWCVPHPKKPGHILVLLDTEGLGDVEKGDNQNDSWIFALAVLLSSTFVYNSIGTINQQAMDQLYYVTELTHRIRSKSSPDENENEVEDSADFVSFFPDFVWTLRDFSPDLEADGQPLTPDEYLTYSLKLKKGTSQKDETFNLPRLCIRKFFPKKKCFVFDRPVHRRKLAQLEKLQDEELDPEFVQQVADFCSYIFSNSKTKTLSGGIQVNGPRLESLVLTYVNAISSGDLPCMENAVLALAQIENSAAVQKAIAHYEQQMGQKVQLPTETLQELLDLHRDSEREAIEVFIRSSFKDVDHLFQKELAAQLEKKRDDFCKQNQEASSDRCSALLQVIFSPLEEEVKAGIYSKPGGYRLFVQKLQDLKKKYYEEPRKGIQAEEILQTYLKSKESMTDAILQTDQTLTEKEKEIEVERVKAESAQASAKMLQEMQRKNEQMMEQKERSYQEHLKQLTEKMENDRVQLLKEQERTLALKLQEQEQLLKEGFQKESRIMKNEIQDLQTKMRRRKACTIS
binds |  | human GBP1 p.H150Y with Flag fused in the N-terminal (protein, UniProt P32455 1-592) MASEIHMTGPMCLIENTNGRLMANPEALKILSAITQPMVVVAIVGLYRTGKSYLMNKLAGKKKGFSLGSTVQSHTKGIWMWCVPHPKKPGHILVLLDTEGLGDVEKGDNQNDSWIFALAVLLSSTFVYNSIGTINQQAMDQLYYVTELTYRIRSKSSPDENENEVEDSADFVSFFPDFVWTLRDFSLDLEADGQPLTPDEYLTYSLKLKKGTSQKDETFNLPRLCIRKFFPKKKCFVFDRPVHRRKLAQLEKLQDEELDPEFVQQVADFCSYIFSNSKTKTLSGGIQVNGPRLESLVLTYVNAISSGDLPCMENAVLALAQIENSAAVQKAIAHYEQQMGQKVQLPTETLQELLDLHRDSEREAIEVFIRSSFKDVDHLFQKELAAQLEKKRDDFCKQNQEASSDRCSALLQVIFSPLEEEVKAGIYSKPGGYRLFVQKLQDLKKKYYEEPRKGIQAEEILQTYLKSKESMTDAILQTDQTLTEKEKEIEVERVKAESAQASAKMLQEMQRKNEQMMEQKERSYQEHLKQLTEKMENDRVQLLKEQERTLALKLQEQEQLLKEGFQKESRIMKNEIQDLQTKMRRRKACTIS
 | binds | zebrafish β-catenin (protein, UniProt F1QGH7 1-780) MATQSDLMELEMAMDPDRKAAVSHWQQQSYLDSGIHSGATTTAPSLSGKGNPEDDDVDNQVLYEWEQGFNQSFNQEQVADIDGQYAMTRAQRVRAAMFPETLDEGMQIPSTQFDSAHPTNVQRLAEPSQMLKHAVVNLINYQDDAELATRAIPELTKLLNDEDQVVVNKAAVMVHQLSKKEASRHAIMRSPQMVSAIVRTMQNTNDVETARCTSGTLHNLSHHREGLLAIFKSGGIPALVKMLGSPVDSVLFYAITTLHNLLLHQEGAKMAVRLAGGLQKMVALLNKTNVKFLAITTDCLQILAYGNQESKLIILASGGPQALVNIMRTYTYEKLLWTTSRVLKVLSVCSSNKPAIVEAGGMQALGLHLTDPSQRLVQNCLWTLRNLSDAATKQEGMEGLLGTLVQLLGSDDINVVTCAAGILSNLTCNNYKNKMMVCQVGGIEALVRTVLRAGDREDITEPAICALRHLTSRHQDAEMAQNAVRLHYGLPVVVKLLHPPSHWPLIKATVGLIRNLALCPANHAPLREQGAIPRLVQLLVRAHQDTQRRTSMGGTQQQFVEGVRMEEIVEGCTGALHILARDIHNRIVIRGLNTIPLFVQLLYSPIENIQRVAAGVLCELAQDKEAAEAIEAEGATAPLTELLHSRNEGVATYAAAVLFRMSEDKPQDYKKRLSVELTSSLFRTEPMTWNETGDLGLDIGAQGEPLGYRQDDPSYRSFHSGGYGQDAMGMDPMMEHEMAGHHPGPDYPVDGLPDLGHTQDLIDGLPPGDSNQLAWFDTDL
